Measurements reported in PubChem BioAssay AID493014 (National Center for Advancing Translational Sciences (NCATS), 2011).
In all, about 340,000 compounds went through this assay and about 170 (0.05%) were called active. The inconclusive results got no clear call from the source; some entries with a clear call stand among them for comparison. The call rests on the fitted dose curve; in most records, active means well fitted inhibition curve with a large enough effect in the signal ratio, with a control signal flat (not every such curve was filed as active); inconclusive means small, poorly fitted or top-dose-only effect, or effect the other way, or a change in a side signal; inactive means flat fitted curve, though single readings scatter; the % refers to the signal ratio. Potencies beside an inconclusive call are fits to weak or partial responses and may not hold up.

Test: qHTS Assay to Find Inhibitors of Chronic Active B-Cell Receptor Signaling;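 on activity change, negative = inhibition: plate controls were basal doxycycline-induced cells for no effect and cells given 10 µM MG132 for full effect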
Settings: ABC-DLBCL IkBa-CBG/CBR reporter, luminescence ratio (green luciferase fused to IkBa over red control in TMD8 lymphoma cells), 4 h; activity change, negative = inhibition: at 46.1 µM (top of the series)
Outline: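 TMD8 ABC-DLBCL cells carrying doxycycline-inducible green luciferase fused to IkappaBalpha plus unfused red luciferase were exposed to compounds (up to 46 uM) for 4 hrs at 37C. Activity came from the overlap-corrected green/red luminescence ratio.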
Potency means the concentration at half of the fitted maximal effect.

| SMILES | Potency | activity change, negative = inhibition |
| --- | --- | --- |
| CCN1C(=NCCc2c[nH]c3ccccc23)N[C@@H](c2ccccc2)C(C(=O)OC)=C1C | inconclusive: 3.55 µM [falling, partial curve, poor fit] | inconclusive: 1.95% |
| O=C(NC(=O)c1ccccc1)Nc1ccc(Cl)cn1 | inconclusive: 8.91 µM [falling, partial curve] |  |
| COCCCN1C(=O)C(=O)/C(=C(/O)c2ccc3c(c2)CC(C)O3)C1c1cccnc1 (stereo unspecified) |  | inconclusive: -1.31% |
| Cc1ccnn1-c1ccc(C(=O)NCc2ccccc2CN2CCOCC2)cc1 |  | inconclusive: 0.224% |
| O=C(Nc1cc(S(=O)(=O)N2CCOCC2)ccc1N1CCCC1)c1ccc(F)cc1 |  | inactive |
| CSc1ccc(C(=O)C2CCCN(S(=O)(=O)c3c(C)noc3C)C2)cc1 (stereo unspecified) |  | inconclusive: 8.18% |
| c1ccc(Oc2c3ccccc3nc3ccccc23)cc1 | inconclusive: 35.5 µM [falling, partial curve, poor fit] |  |
| COCCN(C(=O)CCc1ccccc1OC)c1nnc(-c2cccnc2)s1 |  | inactive |
| CN(Cc1ccc(CNC[C@H]2O[C@@H](n3cnc4c(N)ncnc43)[C@H](O)[C@@H]2O)o1)S(C)(=O)=O |  | inconclusive: 5.23% |
| COC(=O)c1[nH]c2ccc(Cl)cc2c1NC(=O)C1CC1 |  | inactive |
| Cc1ccc(Nc2nc(CSc3nnc(-c4ccccc4)n3C)cs2)cc1 |  | inconclusive: -10.7% |
| CC(=O)Nc1cccc(C(=O)NC2CCCc3c2cnn3-c2ccccc2F)c1 (stereo unspecified) |  | inconclusive: 3.63% |
| O=C(Nc1ccon1)Nc1cccc(Cl)c1Cl |  | inactive |
| [N-]=[N+]=CC(=O)CCCN1C(=O)c2ccccc2C1=O |  | inconclusive: 14.3% |
| NC(=O)C1CCN(C(=O)COc2ccc3ccccc3c2)CC1 | inconclusive: 0.58 µM [falling, full curve] |  |
| CCc1ccc2c(c1)c(N=NC1=NC(=O)CS1)c(O)n2C |  | inactive |
| O=C(NN=C1CCCC1)c1sc2ccccc2c1Cl | inconclusive: 11.2 µM [falling, partial curve] |  |
| Cc1ccc(C(=O)Nc2nc(-c3ccco3)c(-c3ccco3)s2)o1 |  | inconclusive: 17.6% |
| COC(=O)[C@H](Cc1ccccc1)NC(=O)O[C@@H]1C(=O)c2cc(Br)ccc2O[C@H]1c1cccc(OC)c1 |  | inconclusive: -1.72% |
| O=C(CCNc1n[nH]c(=O)[nH]c1=O)N/N=C\c1ccc(Br)cc1 |  | inconclusive: -6.29% |
| CCOc1ccccc1N(CC(=O)NC(C)(C)C)C(=O)CCC(=O)Nc1nccs1 |  | inactive |
| CCOc1cc(NC(=O)c2cccs2)c(OCC)cc1NC(=O)CCC(=O)NCC1CCCO1 (stereo unspecified) |  | inactive |
| O=C(NCc1cc(C(F)(F)F)ccc1Cl)c1cccc2c1C(=O)c1ccc(N3CCC(Cc4ccccc4)CC3)cc1S2(=O)=O |  | inactive |
| COc1ccc(N(C(=O)CCl)C(C(=O)NCCc2ccccc2)c2cccs2)cc1 (stereo unspecified) |  | inconclusive: -21% |
| COC(=O)C1=C(C)N(Cc2ccccc2)C(=NCCc2ccccn2)N[C@H]1c1cccc(C(F)(F)F)c1 |  | inconclusive: -3.4% |
| CC(=O)c1cccc(NC(=O)NCCc2c[nH]c3ccccc23)c1 | inconclusive: 25.1 µM [falling, single point] |  |
| CCCc1cc(=O)n2[nH]c(-c3ccc(Br)cc3)cc2n1 | inconclusive: 29.1 µM [rising, single point] |  |

Some of the entries above, set out differently:
SMILES	Potency	activity change, negative = inhibition
CCN1C(=NCCc2c[nH]c3ccccc23)N[C@@H](c2ccccc2)C(C(=O)OC)=C1C	inconclusive: 3.55 µM [falling, partial curve, poor fit]	inconclusive: 1.95%
O=C(NC(=O)c1ccccc1)Nc1ccc(Cl)cn1	inconclusive: 8.91 µM [falling, partial curve]	
COCCCN1C(=O)C(=O)/C(=C(/O)c2ccc3c(c2)CC(C)O3)C1c1cccnc1 (stereo unspecified)		inconclusive: -1.31%
Cc1ccnn1-c1ccc(C(=O)NCc2ccccc2CN2CCOCC2)cc1		inconclusive: 0.224%
O=C(Nc1cc(S(=O)(=O)N2CCOCC2)ccc1N1CCCC1)c1ccc(F)cc1		inactive
CSc1ccc(C(=O)C2CCCN(S(=O)(=O)c3c(C)noc3C)C2)cc1 (stereo unspecified)		inconclusive: 8.18%
c1ccc(Oc2c3ccccc3nc3ccccc23)cc1	inconclusive: 35.5 µM [falling, partial curve, poor fit]	
COCCN(C(=O)CCc1ccccc1OC)c1nnc(-c2cccnc2)s1		inactive
CN(Cc1ccc(CNC[C@H]2O[C@@H](n3cnc4c(N)ncnc43)[C@H](O)[C@@H]2O)o1)S(C)(=O)=O		inconclusive: 5.23%
COC(=O)c1[nH]c2ccc(Cl)cc2c1NC(=O)C1CC1		inactive
Cc1ccc(Nc2nc(CSc3nnc(-c4ccccc4)n3C)cs2)cc1		inconclusive: -10.7%
CC(=O)Nc1cccc(C(=O)NC2CCCc3c2cnn3-c2ccccc2F)c1 (stereo unspecified)		inconclusive: 3.63%
O=C(Nc1ccon1)Nc1cccc(Cl)c1Cl		inactive
[N-]=[N+]=CC(=O)CCCN1C(=O)c2ccccc2C1=O		inconclusive: 14.3%
NC(=O)C1CCN(C(=O)COc2ccc3ccccc3c2)CC1	inconclusive: 0.58 µM [falling, full curve]	
CCc1ccc2c(c1)c(N=NC1=NC(=O)CS1)c(O)n2C		inactive
O=C(NN=C1CCCC1)c1sc2ccccc2c1Cl	inconclusive: 11.2 µM [falling, partial curve]	
Cc1ccc(C(=O)Nc2nc(-c3ccco3)c(-c3ccco3)s2)o1		inconclusive: 17.6%
COC(=O)[C@H](Cc1ccccc1)NC(=O)O[C@@H]1C(=O)c2cc(Br)ccc2O[C@H]1c1cccc(OC)c1		inconclusive: -1.72%
O=C(CCNc1n[nH]c(=O)[nH]c1=O)N/N=C\c1ccc(Br)cc1		inconclusive: -6.29%
CCOc1ccccc1N(CC(=O)NC(C)(C)C)C(=O)CCC(=O)Nc1nccs1		inactive
CCOc1cc(NC(=O)c2cccs2)c(OCC)cc1NC(=O)CCC(=O)NCC1CCCO1 (stereo unspecified)		inactive

The list continues.

| SMILES | Potency | activity change, negative = inhibition |
| --- | --- | --- |
| Cn1c(SCc2cccnc2)nnc1-c1c[nH]c2ccccc12 |  | inconclusive: 6.65% |
| COc1ccccc1C(CCNCc1ccccc1)c1ccc(OC(C)C)cc1 (stereo unspecified) |  | inconclusive: -20.7% |
| Cc1ccc(NC(=O)CCC(=O)N2CCC(C)CC2)c([N+](=O)[O-])c1 |  | inconclusive: 5.82% |
| O=C(c1cc(-c2ccccc2)nc2ccccc12)N1CCc2ccccc2C1 |  | inconclusive: 0.652% |
| [O-][n+]1onc2c1CCc1nnc(-c3ccccc3)cc1-2 | inconclusive: 2.31 µM [rising, full curve, poor fit] |  |
| O=C(CCc1nnc2ccc(NCc3ccccc3)nn12)NCC1CCN(C2CCCC2)C1 (stereo unspecified) |  | inconclusive: 2.09% |
| Cc1ccc(NC(=O)CSc2nc(O)c(Cc3ccccc3)c(=O)n2-c2ccccc2)cc1 |  | inconclusive: 6.71% |
| COc1ccc(-c2cc(C(F)F)n3ncc(C(=O)N4CCc5ccccc54)c3n2)cc1 | inconclusive: 10 µM [rising, single point] |  |
| CCc1ccc2c(Cl)c(C(=O)N/N=C/c3c[nH]c4ccccc34)sc2c1 |  | inconclusive: -9.28% |
| CCc1ccccc1OCC(=O)NNCC(=O)Nc1cccc(C#N)c1 |  | inconclusive: -11.5% |
| CCc1cccc2c(C(=O)COC(=O)c3c(C)noc3C)c[nH]c12 |  | inconclusive: -6.35% |
| CN1C(=O)C2(c3ccccc31)C1CCCC=C1C(C#N)=C(N)C2(C#N)C#N (stereo unspecified) |  | inconclusive: 0.421% |
| CCN1C(=O)C(Cc2nc3ccccc3c(=O)n2C)c2ccccc21 (stereo unspecified) |  | inconclusive: -19.6% |
| CCCN1CCC(=O)N(CCSc2ccc(C)cc2)CC1 |  | inconclusive: -19% |
| CCOc1ccc(CCNC(=O)c2cc3c(C)nccc3[nH]c2=O)cc1OCC | inconclusive: 5.62 µM [falling, single point] |  |
| CCN(CC)C(=O)Cn1cc(C(=O)C(=O)NCCc2ccccc2)c2ccccc21 | inconclusive: 2.82 µM [falling, full curve] |  |
| CCOC(=O)c1cc(CC)sc1N |  | inconclusive: -0.592% |
| Nc1c(S(=O)(=O)c2cccs2)c2nc3ccccc3nc2n1Cc1ccccc1 | inconclusive: 1.3 µM [rising, full curve] |  |
| Cc1ccc(-c2cc(C(=O)N3CC(C)OC(C)C3)c3ccccc3n2)o1 (stereo unspecified) |  | inactive |
| COc1cc(CCC(=O)Nc2nnc(C)s2)cc(OC)c1OC |  | inactive |
| CCOc1cc(S(=O)(=O)Nc2ccc(CC)cc2)ccc1Cl | inconclusive: 29.1 µM [falling, single point] |  |
| CCCC(C)NC(=O)CSc1nc(-c2ccccc2)cn1N (stereo unspecified) |  | inconclusive: 5.17% |
| O=C(NC(=S)NCc1ccc(Cl)cc1Cl)c1ccco1 |  | inactive |
| CCCn1c(NCc2c[nH]c3ccccc23)nc2ccccc21 |  | inconclusive: 13.7% |
| O=C(c1ccc(OC2CCN(CCc3ccccc3)CC2)cc1)N1CCC(CO)CC1 |  | inconclusive: -12.7% |
| COc1ccc(C(=O)n2c(-c3ccco3)nc3ccccc32)cc1 | inconclusive: 22.4 µM [falling, single point] |  |
| O=C(c1ccco1)N(Cc1ccccc1)Cc1ccccn1 |  | inconclusive: 2.78% |

Some of the entries above in a different format.
SMILES | Potency | activity change, negative = inhibition
Cn1c(SCc2cccnc2)nnc1-c1c[nH]c2ccccc12 |  | inconclusive: 6.65%
COc1ccccc1C(CCNCc1ccccc1)c1ccc(OC(C)C)cc1 (stereo unspecified) |  | inconclusive: -20.7%

The list continues.

| SMILES | Potency | activity change, negative = inhibition |
| --- | --- | --- |
| Cc1ccc(N2C(=O)[C@@H]3[C@H](C2=O)C2c4ccccc4C=NN2[C@@H]3C(=O)c2ccc(Cl)cc2)cc1 (stereo partly specified) |  | inactive |
| CCCOc1cc(NCc2ccccc2)c2ncn(C(C)C)c2c1 |  | inactive |
| CCOC1(C)OCC(=O)[C@]2(CCC3C4CCC5=CC(=O)C=CC5(C)C4C(=O)CC32C)O1 (stereo partly specified) |  | inconclusive: 1% |
| O=C1NC(=O)C2C1C(c1cccs1)NN2Cc1ccccc1 (stereo unspecified) |  | inactive |
| CCOC(=O)C(=O)NN=C(c1ccccc1)c1ccccc1 |  | inconclusive: 3.6% |
| O=c1[nH]c(-[n+]2ccc3ccccc3c2)c(/C=N/N=C(\[O-])c2ccccc2)s1 | inconclusive: 7.94 µM [falling, partial curve] |  |
| O=C(NCc1c(F)cccc1F)c1cc(COc2c(F)cccc2F)on1 | inconclusive: 5.62 µM [falling, single point] |  |
| CO/N=C/c1ccc(Oc2ccc([N+](=O)[O-])cc2[N+](=O)[O-])c(OC)c1 | inconclusive: 23.1 µM [cytotoxic, single point] |  |
| CN(C(=O)CSc1cccc[n+]1[O-])C1CCCCC1 | inconclusive: 9.2 µM [cytotoxic, single point] |  |
| Cc1cc(N/N=C/c2ccc(F)cc2)nc(NCc2ccccc2)n1 | inconclusive: 20 µM [falling, partial curve, poor fit] |  |
| CCn1c(SCC(=O)Nc2ccc3c(c2)OCO3)nc2ccccc21 |  | inconclusive: -0.815% |
| COc1ccc(CNCCC(c2ccc(OC(C)C)cc2)c2ccccc2OC)cc1 (stereo unspecified) | inconclusive: 31.6 µM [falling, single point] |  |
| Cc1cc2c(sc3c(C)ccc(C)c32)c(C)n1 |  | inactive |
| COCCNc1cc(N)c([N+](=O)[O-])cc1[N+](=O)[O-] |  | inactive |
| COc1cc(OC)c2c(-c3cccc(-c4ccc(O)cc4)c3)cc(=O)oc2c1 |  | inconclusive: -5.43% |
| O=c1[nH]ncc(N/N=C\c2ccncc2)c1Cl |  | inactive |
| COc1ccc(C=NNC(=O)c2cc(C)oc2C)cc1O | inconclusive: 6.51 µM [falling, single point] |  |
| CCCNc1c(N)c(=O)oc2ccccc12 | inconclusive: 23.1 µM [falling, partial curve] |  |
| CCCCOc1ccccc1NC(=O)c1ccco1 |  | inconclusive: -7.03% |
| COc1ccc(C(=O)Nc2cccc(OC(=O)c3ccc(C)c(C)c3)c2)cc1 |  | inactive |
| O=C(Nc1nc2c(c(=O)[nH]1)CCCC2)C1CC1 |  | inconclusive: 2.32% |
| CCC(Sc1ccc(C(=O)O)cc1)C(=O)O (stereo unspecified) | inconclusive: 32.6 µM [falling, partial curve, poor fit] |  |
| Cc1cccc(NC(=S)N(Cc2ccc(Br)cc2)Cc2ccc(C(=O)O)cc2)c1 |  | inactive |
| O=C1NC(=Nc2ccccc2Cl)S/C1=C\c1ccc(C(=O)O)cc1 | inconclusive: 2.24 µM [falling, full curve] |  |
| CCOc1ccccc1OCC(=O)NNC(=O)Cn1cnc2c1c(=O)n(C)c(=O)n2C |  | inactive |
| Cc1ccc(N=Cc2c(O)c3ccccc3oc2=O)c(C)c1 |  | inconclusive: -8.74% |
